Measured values taken from paper PMC6925144, “A prospective compound screening contest identified broader inhibitors for Sirtuin 1” (Scientific Reports, 2019).
In all, about 3,200 compounds were measured (“TSA(with NAD+) / Primary screening (TSA) / delta Tm (K)”: median about -0.04, highest 2% from about 0.37 on). Some of the results follow.

The chains behind the UniProt entries cited, without tags or fusion partners. Residues count along the entry.
UniProt Q96EB6, 2-747 limits assumed: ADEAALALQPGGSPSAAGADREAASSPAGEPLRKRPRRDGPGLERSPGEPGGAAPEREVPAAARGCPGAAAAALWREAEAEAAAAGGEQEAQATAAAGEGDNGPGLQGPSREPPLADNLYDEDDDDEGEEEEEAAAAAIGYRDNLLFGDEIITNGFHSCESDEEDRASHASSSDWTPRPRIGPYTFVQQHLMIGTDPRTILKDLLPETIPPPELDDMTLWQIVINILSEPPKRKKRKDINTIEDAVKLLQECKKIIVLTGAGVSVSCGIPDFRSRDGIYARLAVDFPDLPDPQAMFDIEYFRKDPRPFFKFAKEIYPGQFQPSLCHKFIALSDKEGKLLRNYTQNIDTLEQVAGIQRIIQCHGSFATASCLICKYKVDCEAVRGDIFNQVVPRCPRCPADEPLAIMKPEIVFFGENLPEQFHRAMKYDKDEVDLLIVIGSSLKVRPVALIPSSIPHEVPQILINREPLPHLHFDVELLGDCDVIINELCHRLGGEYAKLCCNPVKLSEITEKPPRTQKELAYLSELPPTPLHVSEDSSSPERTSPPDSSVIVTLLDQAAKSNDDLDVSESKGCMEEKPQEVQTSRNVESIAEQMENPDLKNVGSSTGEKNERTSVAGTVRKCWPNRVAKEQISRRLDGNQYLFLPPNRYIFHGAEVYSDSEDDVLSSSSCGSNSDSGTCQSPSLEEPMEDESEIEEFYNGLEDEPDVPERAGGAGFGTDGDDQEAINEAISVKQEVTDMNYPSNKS

Molecular target: NAD-dependent deacetylase Sirtuin 1 (human, UniProt Q96EB6)
Test: primary screen, delta tm
Design: single well (n = 1, as 'the same TSA')
Settings: 10 µM
Protocol: A total of 3,192 compounds extracted from the proposed lists were first screened by thermal shift assay (TSA), which determined a melting temperature shift (ΔTm) of Sirtuin 1 upon the addition of a test compound at a concentration of 10 µM (n = 1) with primary hit criteria of ΔTm > 0.45 K or ΔTm < −1.5 K. Primary hits (48 compounds) were retested in the same assay at three concentrations (5, 10, 20 µM, n = 4) for hit confirmation and for dose-dependency check. Secondary hits (41 compounds) were checked their selectivity for Sirtuin 1 based on counterscreening on unrelated protein targets (bovine carbonic anhydrase (CA) and recombinant SH2 domain of hABL1 kinase (ABL1)) at three different concentrations (5, 10, 20 µM, n = 4), which yielded 38 hit compounds, hereafter referred to as TSA hits. The TSA screening above was conducted in the absence of NAD+. As noted, the structure of Sirtuin 1 is different in the presence of NAD+ and substrate. The chemical profile of TSA hits found from the different conditions could be different. […] As a result, 39 TSA hits were found.

Compound | TSA(with NAD+) / Primary screening (TSA) / delta Tm (K)
CN(CC12CC3CC(CC(C3)C1)C2)C(=O)c1cc2ccccc2oc1=O | -0.16
Cc1ccc(-c2csc3ncn(CC(=O)NCC(=O)Nc4cccc(C)c4C)c(=O)c23)s1 | -0.02
COc1cc(CN(C)C(=O)c2cccc(NC(C)=O)c2)ccc1OCc1ccccc1 | -0.01
O=C(c1sc(N2CCOCC2)nc1-c1ccccc1)c1c[nH]c2ccccc12 | 0.06
CC(C)n1c(S)nnc1CCNC(=O)/C=C/c1ccc(Br)o1 | -0.11
NS(=O)(=O)c1cccc(NC(=O)CSc2n[nH]c(=O)n2Cc2ccccc2)c1 | -0.11
COc1cc(CN(C)C(=O)Cc2c(C)nc3ccccc3c2C)ccc1OCc1ccccc1 | 0.05
Cc1nc2ncnn2c(N2CCC(C(=O)Nc3cccnc3)CC2)c1C | -0.03
N#Cc1ccc(F)c(CNC(=O)NC2CCCCNC2=O)c1 (stereo not shown) | -0.13
C#CCCN | -0.01
Fc1ccc(-n2ncc3c(S)ncnc32)cc1 | -0.01
CN(c1ccccc1)S(=O)(=O)c1cccc(C(=O)OCc2cc(=O)oc3cc(O)ccc23)c1 | 0.03
c1ccc(-c2c3c(nc4sc5c(c24)CCCC5)-c2ccccc2CC3)cc1 | 0.06
COc1ccc(Br)cc1/C=C1/COc2ccccc2C1=O | -0.23
CC(=O)Nc1ccc(NC(=O)c2cccc(C(N)=O)c2)cc1C | -0.12
C=CCOc1cccc(C2C(C(=O)c3ccc(OC)cc3)=C(O)C(=O)N2CCCN2CCOCC2)c1 (stereo not shown) | -0.01
CC(OC(=O)C1=COCCO1)C(=O)Nc1ccc(N2CCOCC2)cc1 (stereo not shown) | -0.06
O=c1cc(NCc2ccccc2Cn2cccn2)nc2ccccn12 | -0.11
Cc1ccc(F)c(/N=C/c2ccccc2O)c1 | -0.08
CC(OC(=O)C1CCCN1C(=O)C12CC3CC(CC(C3)C1)C2)C(=O)c1c[nH]c2ccccc12 (stereo not shown) | -0.06
Cc1ccc(N(Cc2ccccc2)C(=O)N(C)Cc2cnccn2)cc1 | -0.15
CC(NC(=O)COC(=O)c1ccc(NS(=O)(=O)c2ccc3c(c2)OCCO3)cc1)C12CC3CC(CC(C3)C1)C2 (stereo not shown) | 0.27
Cc1cc(F)ccc1N1CCCC(Nc2ccc3nnnn3n2)C1 (stereo not shown) | 0.68

Fetched by structure from above:
Compound | TSA(with NAD+) / Primary screening (TSA) / delta Tm (K)
CC(=O)Nc1ccc(NC(=O)c2cccc(C(N)=O)c2)cc1C | -0.12
CN(CC12CC3CC(CC(C3)C1)C2)C(=O)c1cc2ccccc2oc1=O | -0.16

Carrying on:

Compound | TSA(with NAD+) / Primary screening (TSA) / delta Tm (K)
CC1(NC(=O)CSc2nnc(NCCc3cccs3)s2)CCS(=O)(=O)C1 (stereo not shown) | -0.09
COc1ccc2[nH]cc(C3CCN(C(=O)c4coc(C)c4)CC3)c2c1 | 0.01
O=C(COC(=O)c1ccc2c(c1)S(=O)(=O)c1ccccc1C2=O)Nc1ncc(Cl)cc1Cl | 0.15
C=CCN(C(=O)CSc1nnc(-c2ccccc2)o1)c1nc(-c2ccccc2)cs1 | -0.12
Cn1ncc2c(=O)cc[nH]c21 | -0.03
COc1cc(C)ccc1Oc1ccc(NC(=O)Cc2c(C)nc(-c3ccccn3)[nH]c2=O)cn1 | 0.06
COc1ccc(Br)cc1/C=C1/Cc2ccccc2C1=O | -0.15
CCN(C(=O)COC(=O)CN1C(=O)NC2(CCCc3ccccc32)C1=O)c1nc2ccccc2s1 (stereo not shown) | -0.26
O=C(C1=C(O)C(=O)N(CCCN2CCOCC2)C1c1cccc([N+](=O)[O-])c1)c1ccc(F)cc1 (stereo not shown) | 0.06
O=C(CNc1cnc2ccccc2n1)N1CCCc2ccccc21 | -0.03
NC(=O)c1cccc(NC(=O)c2nn(Cc3ccccc3)c(=O)c3ccccc23)c1 | 0.06
O=C(OCc1cc(=O)n2ccccc2n1)c1ccccc1C(F)(F)F | -0.15
CC(=O)Nc1ccc(NCc2cc(=O)oc3c(C)c(O)ccc23)cc1Cl | -0.11
OCC[C@@H](Nc1cncc(Cl)n1)c1ccccc1 | 0.03
O=c1[nH]c(CSc2cc(Cl)ccc2Cl)nc2ccsc12 | -0.01
O=C(NN/C=C1/C(=O)N(c2cccc(C(F)(F)F)c2)C(=O)c2ccccc21)c1cccc(S(=O)(=O)Nc2ccccc2Cl)c1 | 0.99
Cc1oc2nc[nH]c(=O)c2c1C(=O)NCc1ccc(OCc2ccccc2)cc1 | -0.08
O=C(O)c1nc(Nc2ccc(Cl)cc2)c2ccccc2n1 | -0.11
O=C(CCc1c[nH]c2ccccc12)NCCc1ccco1 | -0.11
c1ccc(-c2nnc(CSc3nnc(-c4cccs4)n3C3CC3)o2)cc1 | 0.05
CCc1c(C)c(C#N)c2nc3ccccc3n2c1Cl | -0.05
Cc1nn2c(nc(N3CCN(C4CCS(=O)(=O)C4)CC3)c3ccccc32)c1Cl (stereo not shown) | -0.03
COc1ccc(NC(=O)CSCC(=O)Nc2cccc(C)c2)cc1OCc1cn2ccccc2n1 | -0.22
